Drawing on PMC5805733, this text covers binding for two molecules.

Results are given in words; binding and its absence hold for the method and conditions named. For some assays here: In cells and extracts the contact can be indirect. Some binding calls cover weakened binding; strength is not graded here. For some assays here: Tags and fused reporters may be left off the sequences shown.

Assay [1] addresses PilPΔ18 with an N-terminal 6-His tag (PilP_(Δ18_His)) (Pseudomonas aeruginosa) (UniProt G3XCX7). Nature of the assay: pull-down; Ni-NTA (His-Trap FF) capture of His-tagged PilPΔ18 from the lysate of combined E. coli pellets; 20 mM HEPES pH 7.5, 500 mM KCl, 10% glycerol, imidazole gradient; eluate read by SDS-PAGE with Coomassie or Western blot. In general terms: Immunoblotting shows a protein as a band on a membrane.

Assay [2] deals with PilO_(Δ109) (core region of PilO) as T18 and T25 fusions (Pseudomonas aeruginosa) (UniProt G3XD51). Nature of the assay: two-hybrid; bacterial two-hybrid (adenylate cyclase T18/T25) in E. coli BTH101; spotted on MacConkey agar with 1% maltose, 48 h at 30 °C.

In the case of “PilNΔ44/PilOΔ51 (untagged, co-expressed soluble periplasmic fragments of PilN and PilO) (from UniProt G3XD30 45-198; G3XD51 52-207) (complex)”, the binding result in assay [1] is “binds”.

B1: PilO_(Δ109) (core region of PilO) as T18 and T25 fusions (domain or fragment, UniProt G3XD51 110-207)
chain: PGLLEDITRTGLGSGLEFEEIKLLPEVAQQFYIELPIQISVVGGYHDLATFVSGVSSLPRIVTLHDFEIKPVAPGSTSKLRMSILAKTYRYNDKGLKK
For the molecule B1, in assay [2], the binding result was “binds”.
